Data reported in patent US20240321457A1, “SYSTEMS FOR AND METHODS OF TREATMENT SELECTION” (THE REGENTS OF THE UNIVERSITY OF CALIFORNIA, priority 2020, published 2024).
No constants are given. Whether binding was seen depends on the method and setting. Binding seen in cells or lysates may run through a third protein. Some results given as binding are weak or reduced against the parent protein; the word gives no strength. Each block holds one substance with its values, some of them ahead of it.

Protein sequences, listed by entry. Tags and fused reporters are not part of them. Residues count along the entry.
UniProt Q14532: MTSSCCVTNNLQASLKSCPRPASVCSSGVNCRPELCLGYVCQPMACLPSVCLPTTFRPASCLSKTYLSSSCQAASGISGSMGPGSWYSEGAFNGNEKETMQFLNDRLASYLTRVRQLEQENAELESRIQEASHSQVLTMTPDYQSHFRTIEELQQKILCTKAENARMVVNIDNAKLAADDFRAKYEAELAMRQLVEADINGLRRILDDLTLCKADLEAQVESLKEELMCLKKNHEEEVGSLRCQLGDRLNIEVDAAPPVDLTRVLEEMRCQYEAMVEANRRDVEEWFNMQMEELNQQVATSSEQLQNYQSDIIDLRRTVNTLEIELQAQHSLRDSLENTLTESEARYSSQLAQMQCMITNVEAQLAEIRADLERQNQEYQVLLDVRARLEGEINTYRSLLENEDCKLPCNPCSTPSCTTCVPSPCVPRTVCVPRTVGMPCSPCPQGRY
UniProt Q9UBG3: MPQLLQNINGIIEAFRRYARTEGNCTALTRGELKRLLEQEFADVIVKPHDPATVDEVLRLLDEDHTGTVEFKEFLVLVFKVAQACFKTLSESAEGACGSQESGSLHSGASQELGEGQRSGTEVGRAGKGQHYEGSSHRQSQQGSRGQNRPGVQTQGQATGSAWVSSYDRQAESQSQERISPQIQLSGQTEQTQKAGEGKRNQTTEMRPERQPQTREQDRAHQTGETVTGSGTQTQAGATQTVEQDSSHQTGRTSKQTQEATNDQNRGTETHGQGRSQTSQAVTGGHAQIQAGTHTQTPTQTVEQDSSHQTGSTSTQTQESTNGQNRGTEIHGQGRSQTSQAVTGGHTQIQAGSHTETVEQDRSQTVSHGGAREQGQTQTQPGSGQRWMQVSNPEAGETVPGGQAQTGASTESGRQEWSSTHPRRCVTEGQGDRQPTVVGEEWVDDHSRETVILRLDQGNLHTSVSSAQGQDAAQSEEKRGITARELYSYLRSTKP
UniProt P62140, residues 2-327: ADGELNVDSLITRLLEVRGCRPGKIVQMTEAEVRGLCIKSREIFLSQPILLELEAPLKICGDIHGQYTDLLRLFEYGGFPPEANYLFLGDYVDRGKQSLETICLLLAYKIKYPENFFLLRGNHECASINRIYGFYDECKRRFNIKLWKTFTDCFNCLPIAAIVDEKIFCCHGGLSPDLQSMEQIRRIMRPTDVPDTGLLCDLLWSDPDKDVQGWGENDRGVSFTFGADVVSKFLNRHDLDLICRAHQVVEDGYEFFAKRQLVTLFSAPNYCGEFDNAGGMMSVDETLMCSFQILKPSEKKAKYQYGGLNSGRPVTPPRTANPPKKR
UniProt Q8TAF3: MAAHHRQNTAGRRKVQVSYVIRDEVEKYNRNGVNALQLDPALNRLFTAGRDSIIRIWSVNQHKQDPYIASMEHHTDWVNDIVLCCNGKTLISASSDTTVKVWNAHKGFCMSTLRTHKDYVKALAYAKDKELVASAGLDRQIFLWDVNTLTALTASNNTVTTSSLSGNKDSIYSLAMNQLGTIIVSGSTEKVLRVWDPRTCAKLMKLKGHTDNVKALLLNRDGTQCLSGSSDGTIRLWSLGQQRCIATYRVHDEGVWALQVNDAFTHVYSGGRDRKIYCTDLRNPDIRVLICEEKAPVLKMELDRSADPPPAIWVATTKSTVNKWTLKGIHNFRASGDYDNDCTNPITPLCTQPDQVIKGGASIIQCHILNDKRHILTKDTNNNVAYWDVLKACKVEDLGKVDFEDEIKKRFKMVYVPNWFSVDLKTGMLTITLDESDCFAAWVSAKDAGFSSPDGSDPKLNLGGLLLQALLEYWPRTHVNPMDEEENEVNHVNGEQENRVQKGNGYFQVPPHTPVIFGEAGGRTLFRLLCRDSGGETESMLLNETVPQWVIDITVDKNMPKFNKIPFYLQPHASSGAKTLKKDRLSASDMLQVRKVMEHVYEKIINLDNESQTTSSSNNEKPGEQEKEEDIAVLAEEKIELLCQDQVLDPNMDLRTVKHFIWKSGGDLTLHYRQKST
UniProt Q9Y243: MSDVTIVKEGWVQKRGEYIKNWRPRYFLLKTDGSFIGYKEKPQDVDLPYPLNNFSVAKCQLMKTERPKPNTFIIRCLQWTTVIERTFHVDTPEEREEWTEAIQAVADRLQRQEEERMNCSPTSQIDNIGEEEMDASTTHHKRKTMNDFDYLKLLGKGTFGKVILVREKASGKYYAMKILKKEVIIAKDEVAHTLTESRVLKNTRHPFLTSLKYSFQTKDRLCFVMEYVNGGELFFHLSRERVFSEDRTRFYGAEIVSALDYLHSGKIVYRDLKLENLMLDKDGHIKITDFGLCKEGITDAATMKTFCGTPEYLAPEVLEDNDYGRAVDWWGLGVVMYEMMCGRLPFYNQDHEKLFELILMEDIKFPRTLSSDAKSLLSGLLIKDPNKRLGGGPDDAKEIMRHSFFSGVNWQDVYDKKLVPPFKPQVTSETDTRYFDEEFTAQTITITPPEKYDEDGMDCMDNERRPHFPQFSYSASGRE
UniProt P30281: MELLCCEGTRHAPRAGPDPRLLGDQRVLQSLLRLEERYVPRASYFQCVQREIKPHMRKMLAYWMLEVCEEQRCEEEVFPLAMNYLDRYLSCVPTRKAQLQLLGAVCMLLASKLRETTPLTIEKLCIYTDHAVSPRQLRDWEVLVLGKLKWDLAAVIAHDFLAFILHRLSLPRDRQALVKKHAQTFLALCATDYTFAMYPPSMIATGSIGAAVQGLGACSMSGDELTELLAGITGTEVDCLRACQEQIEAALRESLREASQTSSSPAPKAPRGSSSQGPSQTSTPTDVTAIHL
UniProt P31749: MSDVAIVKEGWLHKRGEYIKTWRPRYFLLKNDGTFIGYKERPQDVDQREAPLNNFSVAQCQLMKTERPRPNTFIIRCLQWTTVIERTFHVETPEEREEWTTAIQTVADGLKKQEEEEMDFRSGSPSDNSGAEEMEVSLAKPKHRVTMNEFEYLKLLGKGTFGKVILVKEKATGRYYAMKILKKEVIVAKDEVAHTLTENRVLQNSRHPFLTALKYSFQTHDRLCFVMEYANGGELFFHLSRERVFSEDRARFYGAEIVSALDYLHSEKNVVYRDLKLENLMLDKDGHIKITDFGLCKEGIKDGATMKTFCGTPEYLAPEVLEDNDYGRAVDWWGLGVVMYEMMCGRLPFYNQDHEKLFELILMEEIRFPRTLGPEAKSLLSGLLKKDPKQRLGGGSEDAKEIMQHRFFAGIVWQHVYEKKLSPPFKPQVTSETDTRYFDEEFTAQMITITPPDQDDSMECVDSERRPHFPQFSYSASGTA
UniProt P12830, residues 155-882: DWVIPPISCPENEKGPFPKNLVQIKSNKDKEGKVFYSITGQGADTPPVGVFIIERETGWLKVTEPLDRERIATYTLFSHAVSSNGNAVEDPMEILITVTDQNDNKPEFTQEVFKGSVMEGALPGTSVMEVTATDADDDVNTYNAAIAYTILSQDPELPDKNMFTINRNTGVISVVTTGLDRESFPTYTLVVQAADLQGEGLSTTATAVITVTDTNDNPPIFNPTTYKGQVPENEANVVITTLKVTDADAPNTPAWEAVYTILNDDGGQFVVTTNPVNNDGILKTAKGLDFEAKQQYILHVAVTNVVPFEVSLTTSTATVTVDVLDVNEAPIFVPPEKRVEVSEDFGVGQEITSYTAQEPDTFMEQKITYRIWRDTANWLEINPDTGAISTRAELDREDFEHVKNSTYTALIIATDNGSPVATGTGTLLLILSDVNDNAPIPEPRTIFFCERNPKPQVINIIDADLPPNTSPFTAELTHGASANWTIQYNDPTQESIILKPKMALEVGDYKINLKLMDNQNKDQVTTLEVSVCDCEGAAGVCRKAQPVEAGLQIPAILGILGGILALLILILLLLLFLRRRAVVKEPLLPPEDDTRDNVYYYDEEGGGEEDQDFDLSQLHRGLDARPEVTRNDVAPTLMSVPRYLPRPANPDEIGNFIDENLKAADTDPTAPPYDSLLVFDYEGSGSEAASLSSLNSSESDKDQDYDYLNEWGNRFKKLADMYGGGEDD
UniProt Q96SB3: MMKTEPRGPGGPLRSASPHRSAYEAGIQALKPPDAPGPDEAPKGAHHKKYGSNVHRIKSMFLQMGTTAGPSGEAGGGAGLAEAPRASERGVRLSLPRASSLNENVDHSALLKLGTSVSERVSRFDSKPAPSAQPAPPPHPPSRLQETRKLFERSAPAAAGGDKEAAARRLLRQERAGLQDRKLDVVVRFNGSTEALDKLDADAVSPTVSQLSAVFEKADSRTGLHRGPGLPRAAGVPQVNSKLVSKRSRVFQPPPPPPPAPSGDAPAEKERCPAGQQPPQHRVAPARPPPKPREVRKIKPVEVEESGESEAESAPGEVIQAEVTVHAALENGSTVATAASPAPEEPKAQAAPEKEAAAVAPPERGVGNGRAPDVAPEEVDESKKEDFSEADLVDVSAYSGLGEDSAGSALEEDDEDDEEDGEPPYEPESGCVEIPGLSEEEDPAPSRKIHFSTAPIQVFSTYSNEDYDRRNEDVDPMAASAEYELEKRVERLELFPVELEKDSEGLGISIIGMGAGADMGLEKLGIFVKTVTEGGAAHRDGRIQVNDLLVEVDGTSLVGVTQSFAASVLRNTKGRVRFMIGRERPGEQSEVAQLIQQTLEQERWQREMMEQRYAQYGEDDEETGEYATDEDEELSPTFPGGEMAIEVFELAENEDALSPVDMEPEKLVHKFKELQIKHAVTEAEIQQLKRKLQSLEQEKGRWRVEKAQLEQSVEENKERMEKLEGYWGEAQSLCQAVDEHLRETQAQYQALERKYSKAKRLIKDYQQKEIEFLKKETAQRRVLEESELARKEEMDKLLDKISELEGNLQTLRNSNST

Columns and labels:
[1] = target: T1, S100 Calcium Binding Protein A3 (human) (UniProt P33764); assay: AP-MS, 3xFLAG bait, MDA-MB-231 cells
T1 sequence (looked up): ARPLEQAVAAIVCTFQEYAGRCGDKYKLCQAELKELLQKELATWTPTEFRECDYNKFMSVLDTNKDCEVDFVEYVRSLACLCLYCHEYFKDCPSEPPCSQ

[2] = target: keratin KRT32 (human) (UniProt Q14532); assay: AP-MS, 3xFLAG bait, MDA-MB-231 cells
[3] = target: CRNN (human) (UniProt Q9UBG3); assay: AP-MS, 3xFLAG bait, breast cell lines
[4] = target: T2, CSTB (human) (UniProt P04080); assay: AP-MS, 3xFLAG bait, breast cell lines
T2 sequence (looked up): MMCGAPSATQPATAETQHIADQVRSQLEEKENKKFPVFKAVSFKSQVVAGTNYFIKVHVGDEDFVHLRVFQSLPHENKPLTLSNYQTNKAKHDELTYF

[5] = target: T3, SPRR3 (human) (UniProt Q9UBC9); assay: AP-MS, 3xFLAG bait, breast cell lines
T3 sequence (looked up): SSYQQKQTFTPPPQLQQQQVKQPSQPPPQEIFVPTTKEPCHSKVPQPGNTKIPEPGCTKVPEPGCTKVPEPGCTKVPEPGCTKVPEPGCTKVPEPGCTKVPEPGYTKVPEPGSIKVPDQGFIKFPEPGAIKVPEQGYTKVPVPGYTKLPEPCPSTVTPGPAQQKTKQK

[6] = target: T1, S100 Calcium Binding Protein A3 (human); assay: AP-MS, 3xFLAG bait, breast cell lines
[7] = target: keratin KRT32 (human) (UniProt Q14532); assay: AP-MS, 3xFLAG bait, breast cell lines
[8] = target: CDKN1B (human) (UniProt P46527); assay: AP-MS, 3xFLAG bait, MCF7 and MDA-MB-231 cells
[9] = target: T4, PKP4 (human) (UniProt Q99569); assay: AP-MS, 3xFLAG bait, MDA-MB-231 cells
T4 sequence (looked up): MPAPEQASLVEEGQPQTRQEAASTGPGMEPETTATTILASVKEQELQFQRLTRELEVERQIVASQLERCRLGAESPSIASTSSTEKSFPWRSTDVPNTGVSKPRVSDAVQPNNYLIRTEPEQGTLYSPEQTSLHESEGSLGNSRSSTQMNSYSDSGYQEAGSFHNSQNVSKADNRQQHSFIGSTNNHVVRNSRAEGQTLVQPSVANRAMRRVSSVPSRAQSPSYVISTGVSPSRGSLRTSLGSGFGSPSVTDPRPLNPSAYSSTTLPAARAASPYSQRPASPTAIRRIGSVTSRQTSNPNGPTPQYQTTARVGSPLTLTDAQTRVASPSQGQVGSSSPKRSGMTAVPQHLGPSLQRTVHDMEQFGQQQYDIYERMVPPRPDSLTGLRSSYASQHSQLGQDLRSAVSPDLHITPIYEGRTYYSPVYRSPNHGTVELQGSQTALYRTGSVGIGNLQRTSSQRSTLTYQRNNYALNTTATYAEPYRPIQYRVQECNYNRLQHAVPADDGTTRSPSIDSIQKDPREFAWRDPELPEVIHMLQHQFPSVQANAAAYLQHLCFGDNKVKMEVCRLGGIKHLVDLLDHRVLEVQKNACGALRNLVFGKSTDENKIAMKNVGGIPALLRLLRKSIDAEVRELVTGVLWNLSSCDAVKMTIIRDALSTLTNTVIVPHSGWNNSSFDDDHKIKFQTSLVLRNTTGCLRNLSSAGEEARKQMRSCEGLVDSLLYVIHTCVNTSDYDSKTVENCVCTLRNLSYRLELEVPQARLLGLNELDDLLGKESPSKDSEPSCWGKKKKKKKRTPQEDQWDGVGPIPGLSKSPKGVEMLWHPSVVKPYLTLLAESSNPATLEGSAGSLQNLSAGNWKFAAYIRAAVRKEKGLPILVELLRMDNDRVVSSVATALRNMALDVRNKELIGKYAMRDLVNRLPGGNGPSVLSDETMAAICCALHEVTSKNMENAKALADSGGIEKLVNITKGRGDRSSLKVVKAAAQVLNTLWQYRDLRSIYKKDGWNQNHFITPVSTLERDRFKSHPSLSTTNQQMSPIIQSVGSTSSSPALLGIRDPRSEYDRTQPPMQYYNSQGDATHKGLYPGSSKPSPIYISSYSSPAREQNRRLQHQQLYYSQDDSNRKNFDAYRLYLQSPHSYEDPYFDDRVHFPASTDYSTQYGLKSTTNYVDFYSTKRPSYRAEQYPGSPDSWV

[10] = target: T5, PLEKHA7 (human) (UniProt Q6IQ23); assay: AP-MS, 3xFLAG bait, MDA-MB-231 cells
T5 sequence (looked up): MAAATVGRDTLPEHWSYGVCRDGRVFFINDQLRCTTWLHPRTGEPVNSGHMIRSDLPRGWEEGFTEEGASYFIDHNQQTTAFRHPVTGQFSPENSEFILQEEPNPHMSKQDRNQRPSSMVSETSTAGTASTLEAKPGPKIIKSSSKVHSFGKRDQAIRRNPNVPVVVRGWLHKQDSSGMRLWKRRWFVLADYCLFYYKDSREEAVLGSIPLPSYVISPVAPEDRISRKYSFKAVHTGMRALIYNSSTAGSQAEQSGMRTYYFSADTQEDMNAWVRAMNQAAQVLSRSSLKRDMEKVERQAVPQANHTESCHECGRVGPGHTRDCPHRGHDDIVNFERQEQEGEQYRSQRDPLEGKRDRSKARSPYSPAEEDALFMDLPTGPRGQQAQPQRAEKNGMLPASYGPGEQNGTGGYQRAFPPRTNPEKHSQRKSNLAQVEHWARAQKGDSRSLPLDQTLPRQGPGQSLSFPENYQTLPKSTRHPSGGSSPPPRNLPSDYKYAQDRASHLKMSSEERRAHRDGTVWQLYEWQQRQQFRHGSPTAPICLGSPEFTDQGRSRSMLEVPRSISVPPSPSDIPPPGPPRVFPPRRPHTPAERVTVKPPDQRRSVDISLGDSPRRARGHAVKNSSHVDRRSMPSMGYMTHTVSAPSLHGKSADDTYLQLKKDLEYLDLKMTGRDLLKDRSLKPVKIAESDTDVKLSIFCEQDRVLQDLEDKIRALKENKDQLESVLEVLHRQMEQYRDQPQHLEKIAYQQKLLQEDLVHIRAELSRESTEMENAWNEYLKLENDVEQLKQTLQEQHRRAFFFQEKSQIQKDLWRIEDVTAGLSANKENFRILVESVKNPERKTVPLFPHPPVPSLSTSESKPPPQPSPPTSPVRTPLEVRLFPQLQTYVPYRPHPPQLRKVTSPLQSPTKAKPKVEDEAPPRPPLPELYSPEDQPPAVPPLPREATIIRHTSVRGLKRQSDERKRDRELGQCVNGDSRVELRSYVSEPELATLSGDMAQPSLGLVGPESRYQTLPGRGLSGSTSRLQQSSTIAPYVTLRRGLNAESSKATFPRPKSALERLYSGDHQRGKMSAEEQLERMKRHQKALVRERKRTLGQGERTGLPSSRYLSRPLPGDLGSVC

[11] = target: T4, PKP4 (human); assay: AP-MS, 3xFLAG bait, breast cell lines
[12] = target: T5, PLEKHA7 (human); assay: AP-MS, 3xFLAG bait, breast cell lines
[13] = target: BRCA1 (human) (UniProt P38398); assay: AP-MS, 3xFLAG-Spinophilin bait, MDA-MB-231 cells
[14] = target: PPP1CA (human) (UniProt P62136); assay: AP-MS, 3xFLAG-Spinophilin bait, MDA-MB-231 cells
[15] = target: PPP1CB (human) (UniProt P62140); assay: AP-MS, 3xFLAG-Spinophilin bait, MDA-MB-231 cells
[16] = target: PPP1CC (human) (UniProt P36873); assay: AP-MS, 3xFLAG-Spinophilin bait, MDA-MB-231 cells
[17] = target: BRCA1 (human) (UniProt P38398); assay: reciprocal AP-MS, 3xFLAG-Spinophilin bait, MDA-MB-231 cells
[18] = target: T6, MCM10 (human) (UniProt Q7L590); assay: as above
T6 sequence (looked up): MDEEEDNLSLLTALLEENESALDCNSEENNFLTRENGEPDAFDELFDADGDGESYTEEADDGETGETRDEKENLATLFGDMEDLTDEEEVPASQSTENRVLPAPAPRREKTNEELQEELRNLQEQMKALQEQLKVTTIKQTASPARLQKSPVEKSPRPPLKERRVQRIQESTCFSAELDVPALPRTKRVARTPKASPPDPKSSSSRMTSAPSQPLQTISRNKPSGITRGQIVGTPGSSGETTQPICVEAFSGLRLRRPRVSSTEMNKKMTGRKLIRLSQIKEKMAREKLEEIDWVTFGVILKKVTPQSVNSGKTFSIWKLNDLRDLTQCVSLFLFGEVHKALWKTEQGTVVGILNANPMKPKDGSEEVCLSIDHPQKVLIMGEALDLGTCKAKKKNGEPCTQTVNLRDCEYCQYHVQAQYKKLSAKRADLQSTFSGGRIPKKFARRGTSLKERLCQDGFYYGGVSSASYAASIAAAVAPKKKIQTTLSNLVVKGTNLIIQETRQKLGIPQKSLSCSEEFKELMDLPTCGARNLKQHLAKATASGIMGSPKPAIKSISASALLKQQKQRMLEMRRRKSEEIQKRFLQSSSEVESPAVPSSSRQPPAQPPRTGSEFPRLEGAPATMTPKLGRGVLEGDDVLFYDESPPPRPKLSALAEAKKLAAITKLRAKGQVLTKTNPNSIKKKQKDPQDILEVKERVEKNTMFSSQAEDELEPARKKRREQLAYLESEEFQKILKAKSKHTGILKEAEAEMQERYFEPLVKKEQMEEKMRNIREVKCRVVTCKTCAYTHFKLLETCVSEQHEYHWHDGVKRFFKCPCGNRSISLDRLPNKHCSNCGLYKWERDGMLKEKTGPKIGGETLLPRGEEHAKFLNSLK

[19] = target: PPP1CA (human) (UniProt P62136); assay: as above
[20] = target: PPP1CB (human) (UniProt P62140); assay: as above
[21] = target: PPP1CC (human) (UniProt P36873); assay: as above
[22] = target: WDR48 (human) (UniProt Q8TAF3); assay: as above
[23] = target: T7, RRAD (human) (UniProt P55042); assay: quantitative AP-MS, MDA-MB-231 cells
T7 sequence (looked up): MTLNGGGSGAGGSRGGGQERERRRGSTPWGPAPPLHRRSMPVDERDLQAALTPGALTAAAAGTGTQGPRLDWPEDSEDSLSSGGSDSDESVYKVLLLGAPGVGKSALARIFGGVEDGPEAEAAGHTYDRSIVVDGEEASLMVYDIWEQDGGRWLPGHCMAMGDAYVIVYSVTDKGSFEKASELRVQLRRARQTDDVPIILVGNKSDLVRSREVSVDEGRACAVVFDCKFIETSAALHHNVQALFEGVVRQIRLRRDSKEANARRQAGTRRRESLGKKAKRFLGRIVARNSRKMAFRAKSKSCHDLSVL

Substance: AKT3 (from UniProt Q9Y243 1-479) (enzyme)
binding [1]: binds | binding [2]: binds | binding [6]: binds | binding [7]: binds

Substance: CCND3 (from UniProt P30281 1-292)
binding [8]: binds

Substance: TP53 (from UniProt P04637 1-393)
binding [23]: binds

Second part, the substance after the results:

binding [1]: binds | binding [2]: binds | binding [3]: binds | binding [4]: binds | binding [5]: binds
Substance: AKT1 (from UniProt P31749 1-480) (enzyme)

binding [9]: binds | binding [10]: binds | binding [11]: binds | binding [12]: binds
Substance: CDH1 (from UniProt P12830 155-882)

binding [13]: binds | binding [14]: binds | binding [15]: binds | binding [16]: binds | binding [17]: binds | binding [18]: binds | binding [19]: binds | binding [20]: binds | binding [21]: binds | binding [22]: binds
Substance: Spinophilin (from UniProt Q96SB3 1-817)
